# According to the supplement of paper PMC8728848:
# The other results are listed elsewhere or left out.
# B1: GS7807Q-bfa-507-19-507 (Bacteroides fragilis) (protein)
# chain: ASCNKFDDLNTNPDAATKVTAPMLATKLILNITQQGSAKNFVYHSMLSKQIAWSENASDEQYNLFGRTDFDGYTILTNCQKMVDAANEGDKDSYAALAKFMKAYKLFYKSLEVGDIPYSDALKGEEGVQKPKYDTQKEVMRQVLEDLEEAYTLFSSGSDFDGDPIFGGDTENWKKTVVAFELKVLTHLCKKDTDADLKVKERFARLVSSGSLMTSNADNFQLVYSNKAGQLYPFYYTQNKHSDYLMMSSVIIDNLKKFNDYRMFYYASPAKAQTDKGIKDSEWDAYLSIDPSDSYSNISVLYGKGEFCLANLRYTRVPEGEPLMRLSYAEQNFILAEGAVRGWISEDASTYYKKGIEASMNFIADNTPDKEEYTHGRTITQEYIQEYLAQPVIQLSGDKEKDLEMILLQRYLASFLQHPYDAYYDYRRTGYPVLPINPSTNLNTEKNKIPTRWMYPEAEFSYNPDNANEAVQRQYNGSDDVNKLMWILQ
# Experiments:
# Experiment in all cases: glycan array binding signal (z-score within array); higher = stronger binding
# Conditions in all cases: glycan notation: IUPAC condensed, linker removed
# [1] = target: GlcNAc(b1-4)GlcNAc(b1-4)GlcNAc(b1-4)GlcNAc(b1-4)GlcNAc(b1-4)GlcNAc
# How it was run: (§1)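 Columns mapping to the same glycan were averaged after glycan names were converted to IUPAC-condensed notation. The data come from 3228 arrays in the Consortium for Functional Glycomics database, limited to those with an available protein sequence. Binding is reported as a within-array Z-score averaged across arrays of one protein sequence and across linkers.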
# [2] = target: GlcNAc(b1-4)[GlcNAc(b1-6)]GalNAc
# How it was run: as §1
# [3] = target: GlcNAc(b1-6)Gal(b1-4)GlcNAc
# How it was run: as §1
# GlcNAc(b1-6)GalNAc = target: GlcNAc(b1-6)GalNAc
# How it was run: as §1
# [4] = target: GlcNAc6S(b1-3)Gal(b1-4)GlcNAc
# How it was run: as §1
# Kdn(a2-3)Gal(b1-3)GalNAc = target: Kdn(a2-3)Gal(b1-3)GalNAc
# How it was run: as §1
# Kdn(a2-3)Gal(b1-3)GlcNAc = target: Kdn(a2-3)Gal(b1-3)GlcNAc
# How it was run: as §1
# Kdn(a2-3)Gal(b1-4)Glc = target: Kdn(a2-3)Gal(b1-4)Glc
# How it was run: as §1
# Kdn(a2-3)Gal(b1-4)GlcNAc = target: Kdn(a2-3)Gal(b1-4)GlcNAc
# How it was run: as §1
# [5] = target: Kdn(a2-3)Gal(b1-4)[Fuc(a1-3)]GlcNAc
# How it was run: as §1
# Kdn(a2-6)Gal(b1-4)GlcNAc = target: Kdn(a2-6)Gal(b1-4)GlcNAc
# How it was run: as §1
# [6] = target: Man(a1-2)Man(a1-2)Man(a1-3)Man
# How it was run: as §1
# [7] = target: Man(a1-2)Man(a1-2)Man(a1-6)[Man(a1-3)]Man
# How it was run: as §1
# Man(a1-2)Man(a1-3)Man = target: Man(a1-2)Man(a1-3)Man
# How it was run: as §1
# [8] = target: Man(a1-2)Man(a1-3)[Man(a1-2)Man(a1-6)]Man
# How it was run: as §1
# [9] = target: Man(a1-2)Man(a1-3)[Man(a1-2)Man(a1-6)]Man(a1-6)[Man(a1-2)Man(a1-2)Man(a1-3)]Man
# How it was run: as §1
# [10] = target: Man(a1-2)Man(a1-3)[Man(a1-2)Man(a1-6)]Man(a1-6)[Man(a1-2)Man(a1-2)Man(a1-3)]Man(b1-4)GlcNAc(b1-4)GlcNAc
# How it was run: as §1
# [11] = target: Man(a1-2)Man(a1-3)[Man(a1-6)]Man(a1-6)[Man(a1-2)Man(a1-3)]Man(b1-4)GlcNAc(b1-4)GlcNAc
# How it was run: as §1
# [12] = target: Man(a1-2)Man(a1-6)[Man(a1-3)]Man(a1-6)[Man(a1-2)Man(a1-2)Man(a1-3)]Man
# How it was run: as §1
# [13] = target: Man(a1-2)Man(a1-6)[Man(a1-3)]Man(a1-6)[Man(a1-2)Man(a1-2)Man(a1-3)]Man(b1-4)GlcNAc(b1-4)GlcNAc
# How it was run: as §1
# Man(a1-3)[Man(a1-6)]Man = target: Man(a1-3)[Man(a1-6)]Man
# How it was run: as §1
# [14] = target: Man(a1-3)[Man(a1-6)]Man(a1-6)[Man(a1-2)Man(a1-3)]Man(b1-4)GlcNAc(b1-4)GlcNAc
# How it was run: as §1
# [15] = target: Man(a1-3)[Man(a1-6)]Man(a1-6)[Man(a1-3)]Man
# How it was run: as §1
# [16] = target: Man(a1-3)[Man(a1-6)]Man(a1-6)[Man(a1-3)]Man(b1-4)GlcNAc(b1-4)GlcNAc
# How it was run: as §1
# [17] = target: Man(a1-3)[Man(a1-6)]Man(b1-4)GlcNAc(b1-4)GlcNAc
# How it was run: as §1
# [18] = target: Man(a1-3)[Man(a1-6)]Man(b1-4)GlcNAc(b1-4)[Fuc(a1-6)]GlcNAc
# How it was run: as §1
# Man(a1-6)Man = target: Man(a1-6)Man
# How it was run: as §1
# Man(b1-4)GlcNAc = target: Man(b1-4)GlcNAc
# How it was run: as §1
# MurNAc(b1-4)GlcNAc = target: MurNAc(b1-4)GlcNAc
# How it was run: as §1
# Neu5Ac(a2-3)Gal = target: Neu5Ac(a2-3)Gal
# How it was run: as §1
# [19] = target: Neu5Ac(a2-3)Gal(b1-3)GalNAc
# How it was run: as §1
# [20] = target: Neu5Ac(a2-3)Gal(b1-3)GalNAc(b1-3)Gal(a1-4)Gal(b1-4)Glc
# How it was run: as §1
# [21] = target: Neu5Ac(a2-3)Gal(b1-3)GalNAc(b1-4)[Neu5Ac(a2-3)]Gal(b1-4)Glc
# How it was run: as §1
# [22] = target: Neu5Ac(a2-3)Gal(b1-3)GalNAc(b1-4)[Neu5Ac(a2-8)Neu5Ac(a2-3)]Gal(b1-4)Glc
# How it was run: as §1
# [23] = target: Neu5Ac(a2-3)Gal(b1-3)GalNAc6S
# How it was run: as §1
# [24] = target: Neu5Ac(a2-3)Gal(b1-3)GlcNAc
# How it was run: as §1
# [25] = target: Neu5Ac(a2-3)Gal(b1-3)GlcNAc(b1-2)Man
# How it was run: as §1
binder,measurement,setting,value
B1,glycan array binding signal (z-score),[1],-1.34
same,glycan array binding signal (z-score),[2],-0.53
same,glycan array binding signal (z-score),[3],-0.107
same,glycan array binding signal (z-score),GlcNAc(b1-6)GalNAc,-0.934
same,glycan array binding signal (z-score),[4],0.015
same,glycan array binding signal (z-score),Kdn(a2-3)Gal(b1-3)GalNAc,-0.248
same,glycan array binding signal (z-score),Kdn(a2-3)Gal(b1-3)GlcNAc,-0.924
same,glycan array binding signal (z-score),Kdn(a2-3)Gal(b1-4)Glc,-0.249
same,glycan array binding signal (z-score),Kdn(a2-3)Gal(b1-4)GlcNAc,-0.296
same,glycan array binding signal (z-score),[5],-0.442
same,glycan array binding signal (z-score),Kdn(a2-6)Gal(b1-4)GlcNAc,-1.08
same,glycan array binding signal (z-score),[6],-0.16
same,glycan array binding signal (z-score),[7],-0.117
same,glycan array binding signal (z-score),Man(a1-2)Man(a1-3)Man,-0.863
same,glycan array binding signal (z-score),[8],-0.176
same,glycan array binding signal (z-score),[9],-0.894
same,glycan array binding signal (z-score),[10],0.366
same,glycan array binding signal (z-score),[11],-0.639
same,glycan array binding signal (z-score),[12],0.113
same,glycan array binding signal (z-score),[13],0.121
same,glycan array binding signal (z-score),Man(a1-3)[Man(a1-6)]Man,-0.364
same,glycan array binding signal (z-score),[14],-0.891
same,glycan array binding signal (z-score),[15],0.132
same,glycan array binding signal (z-score),[16],0.145
same,glycan array binding signal (z-score),[17],-0.902
same,glycan array binding signal (z-score),[18],-0.263
same,glycan array binding signal (z-score),Man(a1-6)Man,0.531
same,glycan array binding signal (z-score),Man(b1-4)GlcNAc,0.276
same,glycan array binding signal (z-score),MurNAc(b1-4)GlcNAc,-1.36
same,glycan array binding signal (z-score),Neu5Ac(a2-3)Gal,-0.287
same,glycan array binding signal (z-score),[19],-0.825
same,glycan array binding signal (z-score),[20],-1.07
same,glycan array binding signal (z-score),[21],-0.316
same,glycan array binding signal (z-score),[22],1.34
same,glycan array binding signal (z-score),[23],-0.574
same,glycan array binding signal (z-score),[24],-0.614
same,glycan array binding signal (z-score),[25],0.998

# Two entries drawn at random from those above:
binder,measurement,setting,value
B1,glycan array binding signal (z-score),[25],0.998
same,glycan array binding signal (z-score),Kdn(a2-3)Gal(b1-4)GlcNAc,-0.296
